Measured values published in patent US5559147A, “Aromatic fluorine-containing organotin compounds and anti-tumour composition” (Pharmachemie B.V., priority 1994, dated 1996).
The name of at least one read-out is uncertain. For at least one compound, name, drawing or mass did not settle the structure.

How the values were obtained:
Type in all cases: cell-based, human
EVSA-T breast cancer = assay: in vitro cell growth inhibition, EVSA-T; details: EVSAT
MCF-7 breast cancer = assay: in vitro cell growth inhibition, MCF-7
IGROV ovarian cancer = assay: in vitro cell growth inhibition, IGROV
WIDR colon cancer = assay: in vitro cell growth inhibition, WiDr
M19 MEL melanoma = assay: in vitro cell growth inhibition, M19 MEL
A498 renal cancer = assay: in vitro cell growth inhibition, A498

## CCC[CH2][Sn]([CH2]CCC)([O]C(=O)Cc1c(F)c(F)c(F)c(F)c1F)[O]C(=O)Cc1c(F)c(F)c(F)c(F)c1F [compound 4, {(F5 C6 CH2 CO2)2 SnBu2 }]
EVSA-T breast cancer
  ID50 (amount which inhibits 50% of the cell growth): 19 mg/mL
MCF-7 breast cancer
  ID50 (amount which inhibits 50% of the cell growth): 10 mg/mL
IGROV ovarian cancer
  ID50 (amount which inhibits 50% of the cell growth): 20 mg/mL
WIDR colon cancer
  ID50 (amount which inhibits 50% of the cell growth): 145 mg/mL
M19 MEL melanoma
  ID50 (amount which inhibits 50% of the cell growth): 36 mg/mL
A498 renal cancer
  ID50 (amount which inhibits 50% of the cell growth): 51 mg/mL

## {(F5 C6 CH2 CO2 SnBu2)2 O}2 [compound 2]
EVSA-T breast cancer
  ID50 (amount which inhibits 50% of the cell growth): 43 mg/mL
MCF-7 breast cancer
  ID50 (amount which inhibits 50% of the cell growth): 55 mg/mL
IGROV ovarian cancer
  ID50 (amount which inhibits 50% of the cell growth): 60 mg/mL
WIDR colon cancer
  ID50 (amount which inhibits 50% of the cell growth): 275 mg/mL
M19 MEL melanoma
  ID50 (amount which inhibits 50% of the cell growth): 114 mg/mL
A498 renal cancer
  ID50 (amount which inhibits 50% of the cell growth): 105 mg/mL

## {(F5 C6 CH=CHCO2 SnBu2)2 O}2 [compound 3]
EVSA-T breast cancer
  ID50 (amount which inhibits 50% of the cell growth): 37 mg/mL
MCF-7 breast cancer
  ID50 (amount which inhibits 50% of the cell growth): 32 mg/mL
IGROV ovarian cancer
  ID50 (amount which inhibits 50% of the cell growth): 41 mg/mL
WIDR colon cancer
  ID50 (amount which inhibits 50% of the cell growth): 234 mg/mL
M19 MEL melanoma
  ID50 (amount which inhibits 50% of the cell growth): 66 mg/mL
A498 renal cancer
  ID50 (amount which inhibits 50% of the cell growth): 135 mg/mL
